Assay results: the supplement of paper PMC12823440, “Inhibitors supercharge kinase turnover through native proteolytic circuits” (Nature, 2025)
Counter-ions that a name gives are not always drawn. Some of the results follow. The calls rarely recur for the same compound in another form.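 In K562 cells expressing nanoluciferase-fused kinases, luminescence was recorded at 4 h intervals between 2 and 18 h, normalized as percent of control with DMSO at 100% and a positive control at 0%. A significant (2 sigma) signal drop marks a time point as decreased. The authors' rule for a hit is not shown and takes in more than the number of time points.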

By UniProt entry, the sequences of proteins in these tests, tags left out. Where a name states a change or a piece, a line headed by the entry shows the natural chain unless it says otherwise.
UniProt P28482, whole entry: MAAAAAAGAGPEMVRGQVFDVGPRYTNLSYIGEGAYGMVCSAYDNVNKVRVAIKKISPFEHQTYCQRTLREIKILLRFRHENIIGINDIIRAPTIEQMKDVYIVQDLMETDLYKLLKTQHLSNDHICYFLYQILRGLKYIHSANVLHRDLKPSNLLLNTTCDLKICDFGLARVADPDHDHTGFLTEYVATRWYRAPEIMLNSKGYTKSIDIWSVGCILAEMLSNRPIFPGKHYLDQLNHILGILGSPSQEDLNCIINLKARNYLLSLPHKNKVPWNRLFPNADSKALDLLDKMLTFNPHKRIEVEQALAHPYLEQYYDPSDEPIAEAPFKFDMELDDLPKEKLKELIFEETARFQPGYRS
UniProt P31152, whole entry: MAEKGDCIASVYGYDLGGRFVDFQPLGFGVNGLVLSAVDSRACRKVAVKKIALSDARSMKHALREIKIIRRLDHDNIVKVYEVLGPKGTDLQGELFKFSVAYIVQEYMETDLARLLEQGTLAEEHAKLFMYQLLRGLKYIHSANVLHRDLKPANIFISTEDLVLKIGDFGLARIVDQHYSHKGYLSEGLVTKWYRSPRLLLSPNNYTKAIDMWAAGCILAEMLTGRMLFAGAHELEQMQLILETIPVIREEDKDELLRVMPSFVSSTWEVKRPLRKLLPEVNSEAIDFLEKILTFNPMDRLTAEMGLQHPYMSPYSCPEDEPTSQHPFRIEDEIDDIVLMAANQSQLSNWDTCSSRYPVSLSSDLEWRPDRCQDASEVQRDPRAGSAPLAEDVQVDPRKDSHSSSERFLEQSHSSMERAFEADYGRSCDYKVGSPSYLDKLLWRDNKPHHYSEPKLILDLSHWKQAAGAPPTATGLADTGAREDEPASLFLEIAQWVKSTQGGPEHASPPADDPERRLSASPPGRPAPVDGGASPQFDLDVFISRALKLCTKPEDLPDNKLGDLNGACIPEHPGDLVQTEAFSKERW
UniProt P49137, whole entry, looked up: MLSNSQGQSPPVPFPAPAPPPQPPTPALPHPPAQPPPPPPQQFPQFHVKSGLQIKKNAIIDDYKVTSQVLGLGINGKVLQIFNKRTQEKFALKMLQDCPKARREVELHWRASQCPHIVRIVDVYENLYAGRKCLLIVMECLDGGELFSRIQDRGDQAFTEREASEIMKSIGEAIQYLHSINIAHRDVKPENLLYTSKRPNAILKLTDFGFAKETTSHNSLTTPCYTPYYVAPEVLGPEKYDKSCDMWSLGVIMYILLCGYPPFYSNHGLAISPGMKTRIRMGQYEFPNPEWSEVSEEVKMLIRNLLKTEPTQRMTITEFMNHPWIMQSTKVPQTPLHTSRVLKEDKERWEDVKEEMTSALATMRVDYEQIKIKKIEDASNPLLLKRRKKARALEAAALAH
UniProt Q9BUB5: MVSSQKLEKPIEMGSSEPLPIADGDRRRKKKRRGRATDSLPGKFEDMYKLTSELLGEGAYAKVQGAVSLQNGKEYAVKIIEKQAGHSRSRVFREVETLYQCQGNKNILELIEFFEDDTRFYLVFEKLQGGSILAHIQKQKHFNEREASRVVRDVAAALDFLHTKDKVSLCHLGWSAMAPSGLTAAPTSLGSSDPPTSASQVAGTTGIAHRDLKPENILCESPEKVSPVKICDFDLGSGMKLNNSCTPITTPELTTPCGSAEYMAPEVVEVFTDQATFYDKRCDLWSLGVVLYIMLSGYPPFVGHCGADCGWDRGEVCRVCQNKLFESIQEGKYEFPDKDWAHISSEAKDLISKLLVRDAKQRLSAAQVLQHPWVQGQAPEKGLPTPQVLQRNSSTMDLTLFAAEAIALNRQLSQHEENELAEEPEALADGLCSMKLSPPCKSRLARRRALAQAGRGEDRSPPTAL
UniProt Q16620, whole entry, looked up: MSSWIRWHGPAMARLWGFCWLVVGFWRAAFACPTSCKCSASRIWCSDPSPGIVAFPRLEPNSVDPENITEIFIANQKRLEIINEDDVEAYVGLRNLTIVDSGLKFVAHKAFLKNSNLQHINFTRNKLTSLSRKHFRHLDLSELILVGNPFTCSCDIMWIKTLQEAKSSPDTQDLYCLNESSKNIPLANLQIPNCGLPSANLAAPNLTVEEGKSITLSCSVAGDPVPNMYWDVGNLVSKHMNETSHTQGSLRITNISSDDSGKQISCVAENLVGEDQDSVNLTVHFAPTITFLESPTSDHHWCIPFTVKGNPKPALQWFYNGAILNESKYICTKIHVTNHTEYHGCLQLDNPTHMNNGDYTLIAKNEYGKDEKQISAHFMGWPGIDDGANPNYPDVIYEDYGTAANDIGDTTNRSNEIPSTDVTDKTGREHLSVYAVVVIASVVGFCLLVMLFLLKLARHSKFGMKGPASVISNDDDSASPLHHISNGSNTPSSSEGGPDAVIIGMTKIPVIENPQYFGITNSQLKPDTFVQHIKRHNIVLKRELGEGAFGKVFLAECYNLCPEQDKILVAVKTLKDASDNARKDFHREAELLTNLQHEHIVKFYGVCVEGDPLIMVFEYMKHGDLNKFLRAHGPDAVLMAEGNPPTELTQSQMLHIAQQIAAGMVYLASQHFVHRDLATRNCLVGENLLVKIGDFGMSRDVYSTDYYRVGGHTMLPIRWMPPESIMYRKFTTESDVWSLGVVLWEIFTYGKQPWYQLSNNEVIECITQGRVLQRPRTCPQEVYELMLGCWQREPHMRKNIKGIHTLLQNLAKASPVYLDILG
UniProt Q16288, whole entry, looked up: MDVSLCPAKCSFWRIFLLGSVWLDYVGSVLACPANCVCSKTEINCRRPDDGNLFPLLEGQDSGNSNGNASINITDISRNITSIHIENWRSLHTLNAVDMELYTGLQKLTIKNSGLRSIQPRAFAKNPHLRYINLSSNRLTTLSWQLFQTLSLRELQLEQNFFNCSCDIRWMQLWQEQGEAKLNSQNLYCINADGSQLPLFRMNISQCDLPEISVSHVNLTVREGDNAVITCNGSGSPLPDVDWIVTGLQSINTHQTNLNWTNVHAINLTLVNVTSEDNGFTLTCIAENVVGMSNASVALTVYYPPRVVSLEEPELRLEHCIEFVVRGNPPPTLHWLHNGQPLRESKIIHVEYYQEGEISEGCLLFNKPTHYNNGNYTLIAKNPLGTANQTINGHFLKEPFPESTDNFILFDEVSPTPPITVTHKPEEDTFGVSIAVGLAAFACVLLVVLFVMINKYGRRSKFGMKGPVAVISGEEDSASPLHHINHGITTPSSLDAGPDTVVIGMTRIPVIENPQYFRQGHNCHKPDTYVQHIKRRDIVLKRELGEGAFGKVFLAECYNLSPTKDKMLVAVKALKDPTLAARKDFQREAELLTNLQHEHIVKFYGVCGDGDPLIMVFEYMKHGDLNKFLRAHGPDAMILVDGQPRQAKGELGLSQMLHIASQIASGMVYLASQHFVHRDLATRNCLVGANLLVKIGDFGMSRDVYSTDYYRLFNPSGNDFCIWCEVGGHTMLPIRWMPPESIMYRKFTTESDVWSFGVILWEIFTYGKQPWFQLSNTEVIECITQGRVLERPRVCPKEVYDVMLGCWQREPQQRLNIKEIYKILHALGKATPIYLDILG
UniProt O96013: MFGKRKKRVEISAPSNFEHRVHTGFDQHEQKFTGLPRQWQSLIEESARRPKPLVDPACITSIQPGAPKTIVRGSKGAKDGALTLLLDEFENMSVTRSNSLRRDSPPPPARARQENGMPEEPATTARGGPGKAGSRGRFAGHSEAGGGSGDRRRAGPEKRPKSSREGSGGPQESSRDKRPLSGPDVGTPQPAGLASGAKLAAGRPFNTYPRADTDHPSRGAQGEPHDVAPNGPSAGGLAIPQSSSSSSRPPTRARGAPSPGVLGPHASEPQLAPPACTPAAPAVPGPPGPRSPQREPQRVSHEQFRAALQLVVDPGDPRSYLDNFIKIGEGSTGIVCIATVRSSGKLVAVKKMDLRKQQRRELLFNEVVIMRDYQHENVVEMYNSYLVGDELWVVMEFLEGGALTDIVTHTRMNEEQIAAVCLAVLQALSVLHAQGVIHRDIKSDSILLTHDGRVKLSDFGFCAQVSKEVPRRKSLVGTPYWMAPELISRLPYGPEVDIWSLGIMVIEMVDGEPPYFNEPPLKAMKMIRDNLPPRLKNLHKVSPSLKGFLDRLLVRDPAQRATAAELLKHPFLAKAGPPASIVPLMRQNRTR
UniProt Q96KB5: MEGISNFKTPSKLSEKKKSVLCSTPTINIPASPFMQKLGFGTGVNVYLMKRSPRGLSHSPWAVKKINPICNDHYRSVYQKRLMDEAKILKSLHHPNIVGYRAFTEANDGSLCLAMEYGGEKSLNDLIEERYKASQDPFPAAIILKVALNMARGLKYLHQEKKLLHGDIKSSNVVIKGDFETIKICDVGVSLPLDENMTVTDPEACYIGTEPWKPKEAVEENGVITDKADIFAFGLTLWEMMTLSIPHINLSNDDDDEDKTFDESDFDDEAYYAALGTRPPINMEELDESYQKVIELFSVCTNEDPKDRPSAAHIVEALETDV
UniProt P09619, whole entry: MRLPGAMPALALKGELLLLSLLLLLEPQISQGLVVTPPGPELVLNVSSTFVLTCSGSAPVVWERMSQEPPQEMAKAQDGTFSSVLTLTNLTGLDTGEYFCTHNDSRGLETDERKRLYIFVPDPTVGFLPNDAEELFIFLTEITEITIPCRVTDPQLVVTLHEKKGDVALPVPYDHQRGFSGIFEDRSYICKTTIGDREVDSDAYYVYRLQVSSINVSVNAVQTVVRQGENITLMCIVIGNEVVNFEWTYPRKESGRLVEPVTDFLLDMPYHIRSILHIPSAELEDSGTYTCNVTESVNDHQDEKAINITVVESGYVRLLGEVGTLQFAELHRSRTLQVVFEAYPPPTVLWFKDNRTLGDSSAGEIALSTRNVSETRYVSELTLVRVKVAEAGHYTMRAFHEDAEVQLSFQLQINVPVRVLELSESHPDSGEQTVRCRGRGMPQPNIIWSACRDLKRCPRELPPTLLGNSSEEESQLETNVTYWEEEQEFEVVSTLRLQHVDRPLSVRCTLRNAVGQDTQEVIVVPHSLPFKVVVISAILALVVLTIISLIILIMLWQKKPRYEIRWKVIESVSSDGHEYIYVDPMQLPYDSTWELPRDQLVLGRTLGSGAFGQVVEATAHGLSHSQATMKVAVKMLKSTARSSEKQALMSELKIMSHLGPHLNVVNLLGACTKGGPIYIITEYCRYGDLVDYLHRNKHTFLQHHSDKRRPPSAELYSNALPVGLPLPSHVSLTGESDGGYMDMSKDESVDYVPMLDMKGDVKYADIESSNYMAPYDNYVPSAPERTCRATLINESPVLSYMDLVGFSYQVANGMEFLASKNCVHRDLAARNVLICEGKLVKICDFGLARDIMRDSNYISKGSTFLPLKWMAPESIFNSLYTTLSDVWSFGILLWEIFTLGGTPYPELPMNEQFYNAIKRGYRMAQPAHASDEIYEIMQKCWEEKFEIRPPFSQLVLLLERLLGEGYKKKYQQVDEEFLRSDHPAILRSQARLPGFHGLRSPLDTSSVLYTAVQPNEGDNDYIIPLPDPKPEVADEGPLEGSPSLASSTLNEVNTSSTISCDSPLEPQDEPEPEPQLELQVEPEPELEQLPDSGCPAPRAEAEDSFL
UniProt Q15118, whole entry, looked up: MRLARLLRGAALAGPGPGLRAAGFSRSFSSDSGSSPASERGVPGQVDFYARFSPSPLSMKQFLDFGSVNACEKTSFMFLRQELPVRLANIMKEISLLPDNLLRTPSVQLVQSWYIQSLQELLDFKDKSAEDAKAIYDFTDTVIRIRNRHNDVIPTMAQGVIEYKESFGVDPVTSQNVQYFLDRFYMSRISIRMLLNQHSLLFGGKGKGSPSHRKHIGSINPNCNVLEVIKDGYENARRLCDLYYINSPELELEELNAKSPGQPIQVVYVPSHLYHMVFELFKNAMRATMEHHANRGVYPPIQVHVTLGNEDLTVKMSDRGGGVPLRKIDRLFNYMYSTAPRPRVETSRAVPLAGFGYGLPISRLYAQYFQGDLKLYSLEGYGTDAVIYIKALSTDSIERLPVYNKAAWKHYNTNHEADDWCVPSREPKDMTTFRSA

What was measured:
Experiment in all cases: kinase-Nluc reporter destabilization hit call (1 = scored as downregulated) (binary); higher = compound decreases kinase abundance
Conditions in all cases: K562; 2-18 h
MAPK1 = MAPK1 (UniProt P28482)
MAPK4 = MAPK4 (UniProt P31152)
MAPKAPK2 = MAPKAPK2 (UniProt P49137)
MKNK1 = MKNK1 (UniProt Q9BUB5)
NTRK2 = NTRK2 (UniProt Q16620)
NTRK3 = NTRK3 (UniProt Q16288)
PAK4 = PAK4 (UniProt O96013)
PBK = PBK (UniProt Q96KB5)
PDGFRB = PDGFRB (UniProt P09619)
PDK1 = PDK1 (UniProt Q15118)

Measured: kinase-Nluc reporter destabilization hit call

O=C(O)c1ccc(N2N=C(Cc3ccccc3)C(=Cc3ccc(-c4ccccc4F)o3)C2=O)cc1 (10 µM)
inactive: MAPK1 = 0 | MAPK4 = 0 | MAPKAPK2 = 0 | MKNK1 = 0 | NTRK2 = 0 | NTRK3 = 0 | PAK4 = 0 | PBK 0 | PDGFRB 0 | PDK1 = 0

COc1cc(C(C)=O)cc(OC)c1O [Acetosyringone] (10 µM)
inactive: MAPK1 = 0 | MAPK4 = 0 | MAPKAPK2 = 0 | MKNK1 = 0 | NTRK2 = 0 | NTRK3 = 0 | PAK4 = 0 | PBK 0 | PDGFRB 0 | PDK1 = 0

CC[C@H](C)[C@H](NC(=O)[C@H](CCC(=O)O)NC(=O)[C@H](CCCN=C(N)N)NC(=O)[C@H](CCCN=C(N)N)NC(=O)[C@@H](N)CCCCN)C(=O)N[C@@H](CC(C)C)C(=O)N[C@@H](CO)C(=O)N[C@@H](CCCN=C(N)N)C(=O)N[C@@H](CCCN=C(N)N)C(=O)N1CCC[C@H]1C(=O)N[C@@H](CO)C(=O)N[C@@H](Cc1ccc(O)cc1)C(=O)N[C@@H](CCCN=C(N)N)C(=O)O [CREBtide] (10 µM)
inactive: MAPK1 = 0 | MAPK4 = 0 | MAPKAPK2 = 0 | MKNK1 = 0 | NTRK2 = 0 | NTRK3 = 0 | PAK4 = 0 | PBK 0 | PDGFRB 0 | PDK1 = 0

c1ccc(-c2oc3ncnc(NC[C@@H]4CCCO4)c3c2-c2ccccc2)cc1 (2.5 µM)
inactive: MAPK1 = 0 | MAPK4 = 0 | MAPKAPK2 = 0 | MKNK1 = 0 | NTRK2 = 0 | NTRK3 = 0 | PAK4 = 0 | PBK 0 | PDGFRB 0 | PDK1 = 0

CN(C)c1ncnc2nc[nH]c12 [6-(Dimethylamino)purine] (10 µM)
inactive: MAPK1 = 0 | MAPK4 = 0 | MAPKAPK2 = 0 | MKNK1 = 0 | NTRK2 = 0 | NTRK3 = 0 | PAK4 = 0 | PBK 0 | PDGFRB 0 | PDK1 = 0

COC(=O)N[C@@H](C)CNc1nccc(-c2cn(C(C)C)nc2-c2cc(Cl)cc(NS(C)(=O)=O)c2F)n1 [Encorafenib] (10 µM)
inactive: MAPK1 = 0 | MAPK4 = 0 | MAPKAPK2 = 0 | MKNK1 = 0 | NTRK2 = 0 | NTRK3 = 0 | PAK4 = 0 | PBK 0 | PDGFRB 0 | PDK1 = 0

Cc1cc2ncc(-c3ccccc3)nc2cc1C (10 µM)
inactive: MAPK1 = 0 | MAPK4 = 0 | MAPKAPK2 = 0 | MKNK1 = 0 | NTRK2 = 0 | NTRK3 = 0 | PAK4 = 0 | PBK 0 | PDGFRB 0 | PDK1 = 0

CCc1c(C)sc(NC(=S)NC(=O)c2ccc(Cl)cc2)c1C(N)=O (10 µM)
inactive: MAPK1 = 0 | MAPK4 = 0 | MAPKAPK2 = 0 | MKNK1 = 0 | NTRK2 = 0 | NTRK3 = 0 | PAK4 = 0 | PBK 0 | PDGFRB 0 | PDK1 = 0

CC(C)(C)C(=O)N1N=CC[C@H]1c1ccccc1 (10 µM)
inactive: MAPK1 = 0 | MAPK4 = 0 | MAPKAPK2 = 0 | MKNK1 = 0 | NTRK2 = 0 | NTRK3 = 0 | PAK4 = 0 | PBK 0 | PDGFRB 0 | PDK1 = 0

CC(C)n1cnc2c(Nc3cccc(Cl)c3)nc(NCCO)nc21 (10 µM)
inactive: MAPK1 = 0 | MAPK4 = 0 | MAPKAPK2 = 0 | MKNK1 = 0 | NTRK2 = 0 | NTRK3 = 0 | PAK4 = 0 | PBK 0 | PDGFRB 0 | PDK1 = 0

O=C(Nc1cccc(-c2nncn2C2CC2)c1)c1cc(-n2cnc(C3CC3)c2)ccn1 (10 µM)
inactive: MAPK1 = 0 | MAPK4 = 0 | MAPKAPK2 = 0 | MKNK1 = 0 | NTRK2 = 0 | NTRK3 = 0 | PAK4 = 0 | PBK 0 | PDGFRB 0 | PDK1 = 0

O[C@H]1CC[C@H](Nc2ncc3nc(Nc4c(F)cc(F)cc4F)n([C@H]4CCOC4)c3n2)CC1 [Tanzisertib] (10 µM)
inactive: MAPK1 = 0 | MAPK4 = 0 | MAPKAPK2 = 0 | MKNK1 = 0 | NTRK2 = 0 | NTRK3 = 0 | PAK4 = 0 | PBK 0 | PDGFRB 0 | PDK1 = 0

COc1cc(N2CCC(N3CCN(C)CC3)CC2)ccc1Nc1nc2c(c(Nc3ccccc3S(=O)(=O)NC(C)C)n1)CCN2 [Conteltinib] (10 µM)
inactive: MAPK1 = 0 | MAPK4 = 0 | MAPKAPK2 = 0 | MKNK1 = 0 | NTRK2 = 0 | NTRK3 = 0 | PAK4 = 0 | PBK 0 | PDGFRB 0 | PDK1 = 0

CC(=O)Nc1nc2ccc(-c3cnc(C)c(NC(=O)OC4CCCCC4)c3)cc2s1 (10 µM)
inactive: MAPK1 = 0 | MAPK4 = 0 | MAPKAPK2 = 0 | MKNK1 = 0 | NTRK2 = 0 | NTRK3 = 0 | PAK4 = 0 | PBK 0 | PDGFRB 0 | PDK1 = 0

CN(CC(=O)N(Cc1ccc(C2CCCCC2)cc1)c1ccc(C(=O)O)c(O)c1)S(=O)(=O)c1c(F)c(F)c(F)c(F)c1F (2.5 µM)
inactive: MAPK1 = 0 | MAPK4 = 0 | MAPKAPK2 = 0 | MKNK1 = 0 | NTRK2 = 0 | NTRK3 = 0 | PAK4 = 0 | PBK 0 | PDGFRB 0 | PDK1 = 0

NS(=O)(=O)c1ccc(N2N=C(c3ccccc3)CC2c2ccccc2)cc1 (stereo not given) (10 µM)
inactive: MAPK1 = 0 | MAPK4 = 0 | MAPKAPK2 = 0 | MKNK1 = 0 | NTRK2 = 0 | NTRK3 = 0 | PAK4 = 0 | PBK 0 | PDGFRB 0 | PDK1 = 0

O=Nc1c(-c2c(O)[nH]c3ccccc23)[nH]c2ccccc12 [Indirubin-3'-monoxime] (2.5 µM)
inactive: MAPK1 = 0 | MAPK4 = 0 | MAPKAPK2 = 0 | MKNK1 = 0 | NTRK2 = 0 | NTRK3 = 0 | PAK4 = 0 | PBK 0 | PDGFRB 0 | PDK1 = 0

C[C@H]1Cc2ccccc2N1C(=O)Cc1nc(N2CCOCC2)cc(=O)[nH]1 (2.5 µM)
inactive: MAPK1 = 0 | MAPK4 = 0 | MAPKAPK2 = 0 | MKNK1 = 0 | NTRK2 = 0 | NTRK3 = 0 | PAK4 = 0 | PBK 0 | PDGFRB 0 | PDK1 = 0

COc1nc(-c2cccc3c2OCCO3)ccc1Nc1ccc(CN(C)C)cc1 [RAS inhibitor Abd-7] (10 µM)
inactive: MAPK1 = 0 | MAPK4 = 0 | MAPKAPK2 = 0 | MKNK1 = 0 | NTRK2 = 0 | NTRK3 = 0 | PAK4 = 0 | PBK 0 | PDGFRB 0 | PDK1 = 0

CCCCCCCC/C=C\CCCCCCCC(=O)NCC(=O)O [N-Oleoyl glycine] (10 µM)
inactive: MAPK1 = 0 | MAPK4 = 0 | MAPKAPK2 = 0 | MKNK1 = 0 | NTRK2 = 0 | NTRK3 = 0 | PAK4 = 0 | PBK 0 | PDGFRB 0 | PDK1 = 0

COc1cc(N2CCC(O)CC2)ccc1Nc1cc(Nc2ccccc2S(=O)(=O)C(C)C)c2cc[nH]c2n1 (10 µM)
inactive: MAPK1 = 0 | MAPK4 = 0 | MAPKAPK2 = 0 | MKNK1 = 0 | NTRK2 = 0 | NTRK3 = 0 | PAK4 = 0 | PBK 0 | PDGFRB 0 | PDK1 = 0

COc1ccc2c(c1)c(C1=C(c3c[nH]c4ccccc34)C(=O)NC1=O)cn2CCCN(C)C (10 µM)
inactive: MAPK1 = 0 | MAPK4 = 0 | MAPKAPK2 = 0 | MKNK1 = 0 | NTRK2 = 0 | NTRK3 = 0 | PAK4 = 0 | PBK 0 | PDGFRB 0 | PDK1 = 0

CC1=C(C(=O)Nc2ccc3[nH]ncc3c2)C(c2ccc(F)cc2)NC(=O)N1 (stereo not given) (10 µM)
inactive: MAPK1 = 0 | MAPK4 = 0 | MAPKAPK2 = 0 | MKNK1 = 0 | NTRK2 = 0 | NTRK3 = 0 | PAK4 = 0 | PBK 0 | PDGFRB 0 | PDK1 = 0

Cc1cc(Nc2cc(CN3CCOCC3)c3nc(C)c(Cc4ccc(Cl)cc4F)n3n2)n[nH]1 [Gandotinib] (2.5 µM)
inactive: MAPK1 = 0 | MAPK4 = 0 | MAPKAPK2 = 0 | MKNK1 = 0 | NTRK2 = 0 | NTRK3 = 0 | PAK4 = 0 | PBK 0 | PDGFRB 0 | PDK1 = 0

COc1cc(-c2cc(-c3cc(OC)c(OC)c(OC)c3)cc(C(F)P(=O)(OCOC(=O)C(C)(C)C)OCOC(=O)C(C)(C)C)c2)cc(OC)c1OC (stereo not given) [Stafia-1-dipivaloyloxymethyl ester] (2.5 µM)
inactive: MAPK1 = 0 | MAPK4 = 0 | MAPKAPK2 = 0 | MKNK1 = 0 | NTRK2 = 0 | NTRK3 = 0 | PAK4 = 0 | PBK 0 | PDGFRB 0 | PDK1 = 0

CC[C@@H](N)CNc1ccnc(-c2cc(-c3cnn(C)c3)ccc2O)n1 (2.5 µM)
inactive: MAPK1 = 0 | MAPK4 = 0 | MAPKAPK2 = 0 | MKNK1 = 0 | NTRK2 = 0 | NTRK3 = 0 | PAK4 = 0 | PBK 0 | PDGFRB 0 | PDK1 = 0

CCOc1c([C@H](C)n2nc(C)c3c(N)ncnc32)cc(Cl)c(F)c1[C@@H]1CNC(=O)C1 [Parsaclisib (hydrochloride)] (10 µM)
inactive: MAPK1 = 0 | MAPK4 = 0 | MAPKAPK2 = 0 | MKNK1 = 0 | NTRK2 = 0 | NTRK3 = 0 | PAK4 = 0 | PBK 0 | PDGFRB 0 | PDK1 = 0

CCn1nc(C2CCN(C(=O)CCO)CC2)nc1-c1cnc(N)c(-c2nnc(C(C)(C)C)o2)n1 (10 µM)
inactive: MAPK1 = 0 | MAPK4 = 0 | MAPKAPK2 = 0 | MKNK1 = 0 | NTRK2 = 0 | NTRK3 = 0 | PAK4 = 0 | PBK 0 | PDGFRB 0 | PDK1 = 0

O=c1cc(-c2ccc(O)c(O)c2O)oc2ccccc12 (10 µM)
inactive: MAPK1 = 0 | MAPK4 = 0 | MAPKAPK2 = 0 | MKNK1 = 0 | NTRK2 = 0 | NTRK3 = 0 | PAK4 = 0 | PBK 0 | PDGFRB 0 | PDK1 = 0

Filtered by structure: those above containing a furan ring, fused or not (two)
O=C(O)c1ccc(N2N=C(Cc3ccccc3)C(=Cc3ccc(-c4ccccc4F)o3)C2=O)cc1 (10 µM)
inactive: MAPK1 = 0 | MAPK4 = 0 | MAPKAPK2 = 0 | MKNK1 = 0 | NTRK2 = 0 | NTRK3 = 0 | PAK4 = 0 | PBK 0 | PDGFRB 0 | PDK1 = 0

c1ccc(-c2oc3ncnc(NC[C@@H]4CCCO4)c3c2-c2ccccc2)cc1 (2.5 µM)
inactive: MAPK1 = 0 | MAPK4 = 0 | MAPKAPK2 = 0 | MKNK1 = 0 | NTRK2 = 0 | NTRK3 = 0 | PAK4 = 0 | PBK 0 | PDGFRB 0 | PDK1 = 0
